PubChem BioAssay AID1159578, Peter MacCallum Cancer Centre, 2015
Aim: 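siRNA pools altering how lymphatic endothelial cells close a scratch wound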 (primary screen). Cell system: human lymphatic endothelial cells. Knock-down reagent: siRNA pool against human genes, 40 nM. Duration: 48 h after transfection. Detection: 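Cells stained with dye and imaged after a scratch; covered wound area and nuclei counted, duplicates averaged, migration set against mock wells and turned into a robust z-score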. Reading the numbers: migration robust z-score: higher = faster migration into the scratch; migration relative to mock: higher = more scratch area covered than mock; nuclei per well: higher = more cells in the well. Active means: 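Pools averaging fewer than 3300 nuclei are never called; remaining pools count as changed when migration robust z lies outside -2 to 2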. Meaning of the calls: active = migration changed; inactive = no migration change, or too few cells.
The whole screen tested about 18,000 reagents; this is a part drawn at random. In the full data, about 1,030 (5.7%) are marked active. 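Inactive calls also include pools with fewer than 3300 nuclei, whose migration was not assessed.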 Raw values are not corrected between plates.

gene | migration robust z-score | migration class with cell-count check | migration relative to mock | nuclei per well, duplicate mean | outcome
EXTL1 | -0.21 | migration z between -2 and 2; enough cells | 0.76 | 6748 | inactive
CST5 | -1.95 | migration z between -2 and 2; enough cells | 0.38 | 5398 | inactive
TOM1L2 | 0.95 | migration z between -2 and 2; enough cells | 1.13 | 7004 | inactive
SLC26A8 | -2.4 | under 3300 nuclei; migration not judged | 0.26 | 1902 | inactive
RPH3A | 0.97 | migration z between -2 and 2; enough cells | 1.14 | 6706 | inactive
CDIPT | 0.34 | migration z between -2 and 2; enough cells | 0.87 | 6267 | inactive
PDXDC1 | -4.2 | under 3300 nuclei; migration not judged | -0.23 | 2940 | inactive
IL17RE | -0.54 | migration z between -2 and 2; enough cells | 0.75 | 5985 | inactive
ODAD3 | -0.36 | migration z between -2 and 2; enough cells | 0.8 | 5898 | inactive
LMX1B | -1.19 | migration z between -2 and 2; enough cells | 0.57 | 4804 | inactive
WDR74 | 0.21 | migration z between -2 and 2; enough cells | 0.94 | 6159 | inactive
LDLRAD3 | -0.98 | migration z between -2 and 2; enough cells | 0.63 | 5122 | inactive
CHCHD10 | 0.26 | migration z between -2 and 2; enough cells | 0.95 | 5144 | inactive
APLN | -1.33 | migration z between -2 and 2; enough cells | 0.54 | 5743 | inactive
CRYAB | -0.78 | migration z between -2 and 2; enough cells | 0.68 | 5616 | inactive
TMIE | -0.22 | migration z between -2 and 2; enough cells | 0.82 | 5329 | inactive
DDX20 | 0.24 | migration z between -2 and 2; enough cells | 0.85 | 6155 | inactive
ADAMTSL3 | 0.56 | migration z between -2 and 2; enough cells | 1.03 | 6404 | inactive
USP53 | 0.13 | migration z between -2 and 2; enough cells | 0.83 | 5525 | inactive
MRPS18B | 0.54 | migration z between -2 and 2; enough cells | 1.02 | 6570 | inactive
PGAM1 | -1.94 | migration z between -2 and 2; enough cells | 0.43 | 4908 | inactive
HIGD1A | 0.26 | migration z between -2 and 2; enough cells | 0.96 | 6806 | inactive
RPS21 | -1.34 | under 3300 nuclei; migration not judged | 0.53 | 3194 | inactive
PLEKHH3 | -1.35 | migration z between -2 and 2; enough cells | 0.54 | 5401 | inactive
RXFP4 | -0.21 | migration z between -2 and 2; enough cells | 0.76 | 7292 | inactive
CACYBP | -0.17 | migration z between -2 and 2; enough cells | 0.84 | 7093 | inactive
OR4D2 | -1.18 | migration z between -2 and 2; enough cells | 0.58 | 6318 | inactive
NINJ1 | -1.75 | migration z between -2 and 2; enough cells | 0.43 | 6228 | inactive
ACTL9 | -0.72 | migration z between -2 and 2; enough cells | 0.7 | 5094 | inactive
IL21R | 0.32 | migration z between -2 and 2; enough cells | 0.86 | 5684 | inactive
S100B | 0.3 | migration z between -2 and 2; enough cells | 0.97 | 5795 | inactive
CBLC | -0.52 | migration z between -2 and 2; enough cells | 0.7 | 4765 | inactive
CATSPER3 | -0.72 | migration z between -2 and 2; enough cells | 0.66 | 5656 | inactive
ZDHHC12 | 1.4 | migration z between -2 and 2; enough cells | 1.25 | 5838 | inactive
CPAMD8 | -0.43 | migration z between -2 and 2; enough cells | 0.77 | 4336 | inactive
BBLN | 0.58 | migration z between -2 and 2; enough cells | 1.04 | 5832 | inactive

A stretch taken from the entries so far, as a working copy:
gene | migration robust z-score | migration class with cell-count check | migration relative to mock | nuclei per well, duplicate mean | outcome
LDLRAD3 | -0.98 | migration z between -2 and 2; enough cells | 0.63 | 5122 | inactive
CHCHD10 | 0.26 | migration z between -2 and 2; enough cells | 0.95 | 5144 | inactive
APLN | -1.33 | migration z between -2 and 2; enough cells | 0.54 | 5743 | inactive
CRYAB | -0.78 | migration z between -2 and 2; enough cells | 0.68 | 5616 | inactive
TMIE | -0.22 | migration z between -2 and 2; enough cells | 0.82 | 5329 | inactive
DDX20 | 0.24 | migration z between -2 and 2; enough cells | 0.85 | 6155 | inactive

More records follow.
gene | migration robust z-score | migration class with cell-count check | migration relative to mock | nuclei per well, duplicate mean | outcome
HOXB2 | 1.04 | migration z between -2 and 2; enough cells | 1.01 | 6900 | inactive
CS | -0.6 | migration z between -2 and 2; enough cells | 0.69 | 4470 | inactive
CCNH | -0.08 | migration z between -2 and 2; enough cells | 0.79 | 6848 | inactive
H2BC12 | 0.16 | migration z between -2 and 2; enough cells | 0.92 | 6398 | inactive
EXOC2 | 1.19 | migration z between -2 and 2; enough cells | 1.19 | 5869 | inactive
ARHGEF12 | 0.52 | migration z between -2 and 2; enough cells | 0.9 | 4650 | inactive
THRA | 0.34 | migration z between -2 and 2; enough cells | 0.87 | 5762 | inactive
COL7A1 | 1.33 | migration z between -2 and 2; enough cells | 1.23 | 4166 | inactive
GALNT6 | 0.7 | migration z between -2 and 2; enough cells | 0.94 | 5054 | inactive
FLVCR2 | -1.79 | migration z between -2 and 2; enough cells | 0.43 | 6132 | inactive
TAS1R2 | -3.31 | migration z below -2; enough cells | 0.02 | 3620 | active
CEP128 | 0.7 | migration z between -2 and 2; enough cells | 1.06 | 5580 | inactive
TMEM260 | 0.26 | migration z between -2 and 2; enough cells | 0.96 | 5258 | inactive
PNLIPRP1 | -0.71 | migration z between -2 and 2; enough cells | 0.7 | 6740 | inactive
ALS2 | -2.05 | migration z below -2; enough cells | 0.34 | 3347 | active
CCDC34 | -0.76 | migration z between -2 and 2; enough cells | 0.69 | 5420 | inactive
EML3 | 1.03 | migration z between -2 and 2; enough cells | 1.15 | 6333 | inactive
SNX11 | 2.09 | migration z above 2; enough cells | 1.43 | 6203 | active
BATF3 | -0.24 | migration z between -2 and 2; enough cells | 0.76 | 4690 | inactive
SDHAF1 | 0.62 | migration z between -2 and 2; enough cells | 1.05 | 3949 | inactive
AGER | 2.18 | migration z above 2; enough cells | 1.23 | 5810 | active
